PubChem BioAssay AID602196 | INSERM – 2012
This is a random part of about 23,000 reagents. Over the whole deposit, 455 (2%) are marked active. 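Active includes both protection and sensitisation; some change values fall well beyond the stated -50 to +50 range.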 Entries without a mark were called inactive. Not stated in the record: the amount of reagent.

- Aim: 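Genes whose knock-down alters cisplatin killing of lung cancer cells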
- System: human A549 lung cancer cells
- Knock-down reagent: siRNA pair against human genes
- Duration: 48 h transfection before cisplatin; time from cisplatin to read-out not stated
- Treatment: cisplatin at a dose killing half of control-siRNA cells; exact dose and duration not given
- Measured: 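Shift in cisplatin death relative to control siRNA, from -50 (all cells die) to +50 (no cells die); siRNAs harmful on their own scored 0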
- Direction: two-siRNA summed score (-2 to +2): higher = both siRNAs protect from cisplatin killing; -2 means both sensitise; mean protection from cisplatin (shift in death) and protection from cisplatin (shift in death), siRNA C and protection from cisplatin (shift in death), siRNA D: higher = protection from cisplatin killing
- Active means: 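Each siRNA scores 0 if harmful alone by LDH or WST-1, otherwise +1 if it reduces and -1 if it increases cisplatin killing; a gene is active when both siRNAs agree (sum +2 or -2)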
- Meaning of the calls: active = both siRNAs shift cisplatin killing the same way; inactive = no consistent shift, or siRNA harmful alone

no.	target gene	two-siRNA summed score (-2 to +2)	mean protection from cisplatin (shift in death) (%)	protection from cisplatin (shift in death), siRNA C (%)	protection from cisplatin (shift in death), siRNA D (%)
1	CLN8 (CLN8 transmembrane ER and ERGIC protein)	0	14.7	27.5	1.9
2	SLC22A11	0	1.8	9.1	-5.5
3	SEZ6L (seizure related 6 homolog like)	0	-13.6	-4.3	-22.9
4	LINC00487 (long independently transcribed non-coding RNA 487)	0	7.8	6.8	8.8
5	LRSAM1 (leucine rich repeat and sterile alpha motif containing 1)	0	10.7	12.4	9.1
6	ROBO2 (roundabout guidance receptor 2)	0	2.7	10.6	-5.2
7	USP27X-DT (USP27X divergent transcript)	0	5	0.9	9.1
8	LOC440915	0	2.2	6.2	-1.8
9	LOC440726	1	11.1	12.1	10.2
10	MZF1 (myeloid zinc finger 1)	0	-1.2	-2	-0.4
11	HSD11B1 (hydroxysteroid 11-beta dehydrogenase 1)	-1	-10.6	-19.8	-1.4
12	PDE7A (phosphodiesterase 7A)	-1	-6	-30.8	18.9
13	TMEM214 (transmembrane protein 214)	0	-2.6	1.8	-6.9
14	TRIM2 (tripartite motif containing 2)	0	11	15.5	6.6
15	ADAMTS6 (ADAM metallopeptidase with thrombospondin type 1 motif 6)	1	21	25.3	16.8
16	TACR1 (tachykinin receptor 1)	0	6.6	9.1	4.1
17	FLJ36980	0	6.9	7.8	6
18	AFAP1L2 (actin filament associated protein 1 like 2)	0	5.5	4.1	6.9
19	EPPK1 (epiplakin 1)	0	-0.3	-4.7	4
20	SPC24 (SPC24 component of NDC80 kinetochore complex)	0	6.4	23.7	-11
21	LOC392533	0	2.2	9.2	-4.7
22	C5orf22 (chromosome 5 open reading frame 22)	1	10.7	-1.4	22.8
23	LINC00608 (long independently transcribed non-coding RNA 608)	0	6.8	4.4	9.2
24	NDST3 (N-deacetylase and N-sulfotransferase 3)	0	-3.9	-0.9	-7
25	LOC284397	0	14.2	22.2	6.1
26	SLC22A5	0	6.2	11.9	0.5
27	FAM90A3 (family with sequence similarity 90 member A3)	0	26.8	35.7	17.9
28	THTPA (thiamine triphosphatase)	-1	-7	-25.7	11.8
29	APLN (apelin)	0	7.5	8.5	6.5
30	LRRN3 (leucine rich repeat neuronal 3)	0	-0.7	2.2	-3.7
31	PTPRJ (protein tyrosine phosphatase receptor type J)	0	4.6	4.5	4.7
32	IFI27L2 (interferon alpha inducible protein 27 like 2)	0	-3.4	-5.4	-1.4
33	HSD3B2	0	17.4	15.8	18.9
34	PBX4 (PBX homeobox 4)	0	-3.1	0.6	-6.8
35	LOC400621	0	12.7	16.3	9.1
36	ASB18 (ankyrin repeat and SOCS box containing 18)	1	18.2	29.2	7.3
37	ADGRG6 (adhesion G protein-coupled receptor G6)	0	3.1	4.6	1.7
38	STAMBP (STAM binding protein)	-1	-13.7	-6.1	-21.4
39	DHCR7 (7-dehydrocholesterol reductase)	0	-16.5	3.3	-36.2
40	OR2T29 (olfactory receptor family 2 subfamily T member 29)	0	13.7	22.2	5.2
41	OR2K2 (olfactory receptor family 2 subfamily K member 2)	0	14	21.5	6.6
42	ECD (ecdysoneless cell cycle regulator)	0	-8.9	-15.3	-2.5
43	SNRNP35 (small nuclear ribonucleoprotein U11/U12 subunit 35)	0	6.9	6.8	6.9
44	UHRF1 (ubiquitin like with PHD and ring finger domains 1)	0	0	2.4	-2.5
45	LOC441812	0	1.5	9.1	-6.1
46	PUS1 (pseudouridine synthase 1)	0	4.1	9.5	-1.3
47	PIM2 (Pim-2 proto-oncogene, serine/threonine kinase)	1	21.1	31	11.2
48	CD33 (CD33 molecule)	-1	-6.8	-24.7	11.1
49	GDF6 (growth differentiation factor 6)	-1	-6.6	-11.5	-1.6
50	TTC16 (tetratricopeptide repeat domain 16)	0	5.3	-14.5	25.1
51	ITGB7 (integrin subunit beta 7)	0	13.1	14.1	12.1
52	LOC440452	0	19.5	13.1	26
53	ITGA11 (integrin subunit alpha 11)	-1	-5.9	-16.3	4.4
54	SLC52A3	1	10.3	6.7	13.8
55	PTPRG (protein tyrosine phosphatase receptor type G)	1	9.1	16.9	1.3
56	PLEKHG6 (pleckstrin homology and RhoGEF domain containing G6)	0	-5.1	-6.6	-3.6
57	FGFRL1 (fibroblast growth factor receptor like 1)	0	2.1	14.1	-9.8

6 consecutive reagents already listed:
no.	target gene	two-siRNA summed score (-2 to +2)	mean protection from cisplatin (shift in death) (%)	protection from cisplatin (shift in death), siRNA C (%)	protection from cisplatin (shift in death), siRNA D (%)
9	LOC440726	1	11.1	12.1	10.2
10	MZF1 (myeloid zinc finger 1)	0	-1.2	-2	-0.4
11	HSD11B1 (hydroxysteroid 11-beta dehydrogenase 1)	-1	-10.6	-19.8	-1.4
12	PDE7A (phosphodiesterase 7A)	-1	-6	-30.8	18.9
13	TMEM214 (transmembrane protein 214)	0	-2.6	1.8	-6.9
14	TRIM2 (tripartite motif containing 2)	0	11	15.5	6.6
